Reference: patent publication US11433099B2, “Immunotherapy with B*08 restricted peptides and combination of peptides against cancers and related methods” (Immatics Biotechnologies GmbH, priority 2018, dated 2022)

These substances were tested on HLA peptide pools from tumor and normal tissue samples (assay: Identification and relative LC-MS quantitation of HLA-presented tumor associated peptides (presentation profiles)). Conditions: FIGS. 1A to 1L; N=38 normal samples, N=91 tumor samples.
Parameters: species or system human
For “ELFLHPVL (listed as Homo sapiens) [SEQ ID NO: 29]”, the “over-presentation in HLA-B*08 cancer tissues compared to a panel of HLA-B*08 normal samples” value was “over-presentation”. In the case of “RILKRFLAC (listed as Homo sapiens) [SEQ ID NO: 21]”, the “over-presentation in HLA-B*08 cancer tissues compared to a panel of HLA-B*08 normal samples” value is reported as “over-presentation”. “DLRKLKRQL (listed as Homo sapiens) [SEQ ID NO: 53]” was tested, and the “over-presentation in HLA-B*08 cancer tissues compared to a panel of HLA-B*08 normal samples” value was “over-presentation”. For “RPKGTPPL (listed as Homo sapiens) [SEQ ID NO: 70]”, the “over-presentation in HLA-B*08 cancer tissues compared to a panel of HLA-B*08 normal samples” value was “over-presentation”. With “DLVLKRCL (listed as Homo sapiens) [SEQ ID NO: 24]” the “over-presentation in HLA-B*08 cancer tissues compared to a panel of HLA-B*08 normal samples” value was “over-presentation”. With “DIKKTNESL (listed as Homo sapiens) [SEQ ID NO: 23]” the “over-presentation in HLA-B*08 cancer tissues compared to a panel of HLA-B*08 normal samples” value was “over-presentation”.

Same assay, conditions: FIGS. 1M and 1O; N=592 normal samples, N=711 tumor samples
For “YVYANHFTEA (listed as Homo sapiens) [SEQ ID NO: 291]”, the “over-presentation in HLA-A*02 cancer tissues compared to a panel of HLA-A*02 normal samples” value was “over-presentation”.

Same assay, conditions: Table 8; cancer entities on which the peptide was presented
For “291 (YVYANHFTEA; listed as Homo sapiens) [compound 291]”, the “Peptide Presentation on cancer entities” value was “BRCA, CCC, CRC, GBC, GC, GEJC, HCC, HNSCC, MEL, NHL, NSCLCadeno, NSCLCother, NSCLCsquam, OC, OSCAR, PACA, SCLC, UBC, UEC”.

Same assay, conditions: cancer entities on which the peptide was found presented (Table 8A); value = entity abbreviations
With “217 (ETIKGHSVRL; listed as Homo sapiens) [compound 217]” the “Peptide Presentation on cancer entities” value was “HNSCC”. With “38 (EVYQKIIL; listed as Homo sapiens) [compound 38]” the “Peptide Presentation on cancer entities” value was “CCC, HNSCC, NHL, NSCLCadeno, NSCLCother”. “48 (ELALRQTV; listed as Homo sapiens) [compound 48]” was tested, and the “Peptide Presentation on cancer entities” value was “HNSCC”. For “101 (FAFEKLIQF; listed as Homo sapiens) [compound 101]”, the “Peptide Presentation on cancer entities” value was “MEL, PRCA”. For “210 (QPNTHQLL; listed as Homo sapiens) [compound 210]”, the “Peptide Presentation on cancer entities” value was “HNSCC”. For “220 (LAVRHLSL; listed as Homo sapiens) [compound 220]”, the “Peptide Presentation on cancer entities” value was “CCC”. For “165 (QNSLRHNL; listed as Homo sapiens) [compound 165]”, the “Peptide Presentation on cancer entities” value was “CCC”. In the case of “30 (DLQKKAQAL; listed as Homo sapiens) [compound 30]”, the “Peptide Presentation on cancer entities” value is reported as “BRCA, MEL, NSCLCsquam, OSCAR, PACA, PRCA”. “14 (ELILKRCL; listed as Homo sapiens) [compound 14]” was tested, and the “Peptide Presentation on cancer entities” value was “NSCLCadeno, NSCLCsquam”. In the case of “46 (DLRNKIIAA; listed as Homo sapiens) [compound 46]”, the “Peptide Presentation on cancer entities” value is reported as “CCC, GBC, HNSCC, MEL, NHL, NSCLCadeno, NSCLCother, NSCLCsquam, OSCAR, PACA, UBC”. With “143 (DADLREQAL; listed as Homo sapiens) [compound 143]” the “Peptide Presentation on cancer entities” value was “HNSCC, NSCLCsquam, PACA”. With “236 (STLKKSLEI; listed as Homo sapiens) [compound 236]” the “Peptide Presentation on cancer entities” value was “NSCLCsquam”. For “123 (SLLPFTLSF; listed as Homo sapiens) [compound 123]”, the “Peptide Presentation on cancer entities” value was “MEL”. With “92 (TLKAMVQAW; listed as Homo sapiens) [compound 92]” the “Peptide Presentation on cancer entities” value was “MEL”. “103 (IANLRVKNI; listed as Homo sapiens) [compound 103]” was tested, and the “Peptide Presentation on cancer entities” value was “UEC”. With “249 (QQIDRVVEV; listed as Homo sapiens) [compound 249]” the “Peptide Presentation on cancer entities” value was “CCC, GBM, NHL”. With “122 (ESSAQPTAL; listed as Homo sapiens) [compound 122]” the “Peptide Presentation on cancer entities” value was “GBM, HNSCC”. With “128 (HFHNRHVF; listed as Homo sapiens) [compound 128]” the “Peptide Presentation on cancer entities” value was “HNSCC, OSCAR, UEC”. For “200 (VAAARAVPV; listed as Homo sapiens) [compound 200]”, the “Peptide Presentation on cancer entities” value was “MEL”. In the case of “226 (DIYEVAVSL; listed as Homo sapiens) [compound 226]”, the “Peptide Presentation on cancer entities” value is reported as “CCC”. With “114 (PVKPKFYL; listed as Homo sapiens) [compound 114]” the “Peptide Presentation on cancer entities” value was “MEL”. For “96 (RPAGVFEL; listed as Homo sapiens) [compound 96]”, the “Peptide Presentation on cancer entities” value was “NSCLCadeno”. With “158 (DVIIKGNGL; listed as Homo sapiens) [compound 158]” the “Peptide Presentation on cancer entities” value was “HNSCC, NSCLCadeno, NSCLCother, NSCLCsquam, OSCAR, RCC”. With “221 (SLKEELLSL; listed as Homo sapiens) [compound 221]” the “Peptide Presentation on cancer entities” value was “CCC”. For “58 (LPKKMKLL; listed as Homo sapiens) [compound 58]”, the “Peptide Presentation on cancer entities” value was “PACA”. For “185 (MELKTVKPI; listed as Homo sapiens) [compound 185]”, the “Peptide Presentation on cancer entities” value was “CCC, GBM, NSCLCother, NSCLCsquam”. With “24 (DLVLKRCL; listed as Homo sapiens) [compound 24]” the “Peptide Presentation on cancer entities” value was “MEL”. In the case of “73 (MFPARGVPL; listed as Homo sapiens) [compound 73]”, the “Peptide Presentation on cancer entities” value is reported as “NSCLCsquam”. For “174 (HAMPSPRIL; listed as Homo sapiens) [compound 174]”, the “Peptide Presentation on cancer entities” value was “NSCLCother”. “224 (LPYPPQKVV; listed as Homo sapiens) [compound 224]” was tested, and the “Peptide Presentation on cancer entities” value was “GBM”. For “72 (LPLAHHIQL; listed as Homo sapiens) [compound 72]”, the “Peptide Presentation on cancer entities” value was “HNSCC”. In the case of “4 (QVMPKTGL; listed as Homo sapiens) [compound 4]”, the “Peptide Presentation on cancer entities” value is reported as “HCC, MEL, OSCAR”. For “213 (FPSLFINQF; listed as Homo sapiens) [compound 213]”, the “Peptide Presentation on cancer entities” value was “NSCLCsquam, UEC”. With “118 (MAFVKHLL; listed as Homo sapiens) [compound 118]” the “Peptide Presentation on cancer entities” value was “MEL”. In the case of “70 (RPKGTPPL; listed as Homo sapiens) [compound 70]”, the “Peptide Presentation on cancer entities” value is reported as “BRCA, CCC, CRC, GBM, GC, HNSCC, MEL, NHL, NSCLCadeno, NSCLCsquam, RCC, UBC, UEC”. In the case of “120 (AQRSEMVTL; listed as Homo sapiens) [compound 120]”, the “Peptide Presentation on cancer entities” value is reported as “NSCLCsquam”. “162 (LFKQTKINL; listed as Homo sapiens) [compound 162]” was tested, and the “Peptide Presentation on cancer entities” value was “NSCLCsquam”. With “240 (KVIDRKVEL; listed as Homo sapiens) [compound 240]” the “Peptide Presentation on cancer entities” value was “NSCLCadeno, NSCLCsquam”. In the case of “225 (MPKRAHWGA; listed as Homo sapiens) [compound 225]”, the “Peptide Presentation on cancer entities” value is reported as “HNSCC”. For “67 (DMNTKRAIHTL; listed as Homo sapiens) [compound 67]”, the “Peptide Presentation on cancer entities” value was “CLL”. In the case of “214 (DAPRHRLL; listed as Homo sapiens) [compound 214]”, the “Peptide Presentation on cancer entities” value is reported as “NSCLCadeno”. For “245 (GPRGPSSGHPL; listed as Homo sapiens) [compound 245]”, the “Peptide Presentation on cancer entities” value was “MEL”. With “113 (MEKGLASL; listed as Homo sapiens) [compound 113]” the “Peptide Presentation on cancer entities” value was “HNSCC”. “194 (RAIEHVLQV; listed as Homo sapiens) [compound 194]” was tested, and the “Peptide Presentation on cancer entities” value was “NSCLCother”. “250 (AARAPPQAL; listed as Homo sapiens) [compound 250]” was tested, and the “Peptide Presentation on cancer entities” value was “BRCA, GBC”. “191 (RPLKPGEVL; listed as Homo sapiens) [compound 191]” was tested, and the “Peptide Presentation on cancer entities” value was “BRCA”.

Same assay, conditions: running text (Table 8A examples; LC-MS identification on tumor samples)
In the case of “QVMPKTGL (listed as Homo sapiens) [SEQ ID NO: 4]”, the “presentation on various cancer entities” value is reported as “hepatocellular carcinoma, melanoma and esophagus cancer”.
